Results are given in words; binding and its absence hold for the method and conditions named. In cells and extracts the contact can be indirect. Some entries that bind do so weakly or less than the wild type. For some assays here: Sequences can lack the tags named with a protein.
How the values were obtained:
[1] = biological target: integrin β4 (human (endogenous in MDA-MB-231)) (UniProt P16144); assay: co-IP; MDA-MB-231 cells transfected with HA-NEDD4; endogenous ITG β4 immunoprecipitated and blotted for HA (left panel); reverse IP with HA trap beads and blot for ITG β4 (right panel); CellLytic M lysis buffer, overnight at 4 °C
3xHA-NEDD4 = 3xHA-NEDD4 (UniProt P46934); assay: co-IP; MDA-MB-231 cells co-transfected with GFP or GFP-ARRDC3 and HA or HA-NEDD4; IP with HA trap beads, blots with ITG β4, HA and GFP antibodies

Chains of the proteins cited; added tags and fusions are not shown. Residues count along the entry.
UniProt P16144, residues 28-1822: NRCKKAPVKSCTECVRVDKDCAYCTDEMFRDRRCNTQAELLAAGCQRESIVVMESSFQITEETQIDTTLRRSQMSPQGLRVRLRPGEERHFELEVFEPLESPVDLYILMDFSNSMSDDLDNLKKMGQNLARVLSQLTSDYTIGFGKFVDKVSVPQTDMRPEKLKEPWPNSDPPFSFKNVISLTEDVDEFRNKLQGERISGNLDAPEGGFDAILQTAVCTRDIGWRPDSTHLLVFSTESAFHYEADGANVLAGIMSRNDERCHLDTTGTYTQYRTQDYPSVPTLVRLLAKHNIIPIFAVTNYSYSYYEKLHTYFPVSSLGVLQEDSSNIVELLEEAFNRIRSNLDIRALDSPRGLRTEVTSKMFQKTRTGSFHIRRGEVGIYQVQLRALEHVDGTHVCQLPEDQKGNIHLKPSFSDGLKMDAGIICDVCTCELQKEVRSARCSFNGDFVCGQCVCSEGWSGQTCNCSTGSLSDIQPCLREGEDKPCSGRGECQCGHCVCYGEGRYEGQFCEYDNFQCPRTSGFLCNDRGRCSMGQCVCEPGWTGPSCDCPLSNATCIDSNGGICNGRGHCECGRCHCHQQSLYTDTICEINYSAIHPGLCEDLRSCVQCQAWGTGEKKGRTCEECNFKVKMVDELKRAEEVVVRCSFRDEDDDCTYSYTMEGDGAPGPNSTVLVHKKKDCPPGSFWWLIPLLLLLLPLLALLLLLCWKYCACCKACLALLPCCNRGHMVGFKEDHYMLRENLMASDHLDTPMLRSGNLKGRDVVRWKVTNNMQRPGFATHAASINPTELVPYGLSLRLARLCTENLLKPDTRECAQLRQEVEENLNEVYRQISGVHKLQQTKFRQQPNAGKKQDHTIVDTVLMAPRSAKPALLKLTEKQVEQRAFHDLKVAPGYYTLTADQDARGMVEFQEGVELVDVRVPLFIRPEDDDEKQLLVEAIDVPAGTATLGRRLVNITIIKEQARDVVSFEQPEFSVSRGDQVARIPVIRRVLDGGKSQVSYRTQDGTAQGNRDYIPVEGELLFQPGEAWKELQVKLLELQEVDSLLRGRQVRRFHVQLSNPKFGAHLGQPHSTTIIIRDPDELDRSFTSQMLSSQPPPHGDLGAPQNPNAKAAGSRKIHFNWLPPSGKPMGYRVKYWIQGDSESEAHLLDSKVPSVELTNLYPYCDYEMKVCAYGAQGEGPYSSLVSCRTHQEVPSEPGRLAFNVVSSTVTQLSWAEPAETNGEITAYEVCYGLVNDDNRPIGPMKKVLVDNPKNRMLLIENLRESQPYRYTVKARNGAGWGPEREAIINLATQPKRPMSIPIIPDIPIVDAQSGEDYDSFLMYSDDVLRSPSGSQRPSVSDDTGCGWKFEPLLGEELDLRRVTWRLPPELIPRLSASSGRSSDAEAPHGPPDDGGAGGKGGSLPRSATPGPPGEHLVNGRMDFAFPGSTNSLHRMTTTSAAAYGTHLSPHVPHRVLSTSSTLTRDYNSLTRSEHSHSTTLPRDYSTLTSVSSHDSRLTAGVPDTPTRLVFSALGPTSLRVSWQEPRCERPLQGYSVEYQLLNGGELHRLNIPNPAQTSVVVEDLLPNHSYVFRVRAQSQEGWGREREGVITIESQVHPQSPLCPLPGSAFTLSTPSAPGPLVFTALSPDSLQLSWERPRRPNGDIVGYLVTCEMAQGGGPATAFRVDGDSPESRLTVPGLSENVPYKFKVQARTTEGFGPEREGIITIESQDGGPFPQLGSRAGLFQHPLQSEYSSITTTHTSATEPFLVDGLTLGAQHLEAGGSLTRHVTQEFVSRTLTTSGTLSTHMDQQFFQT
UniProt P46934: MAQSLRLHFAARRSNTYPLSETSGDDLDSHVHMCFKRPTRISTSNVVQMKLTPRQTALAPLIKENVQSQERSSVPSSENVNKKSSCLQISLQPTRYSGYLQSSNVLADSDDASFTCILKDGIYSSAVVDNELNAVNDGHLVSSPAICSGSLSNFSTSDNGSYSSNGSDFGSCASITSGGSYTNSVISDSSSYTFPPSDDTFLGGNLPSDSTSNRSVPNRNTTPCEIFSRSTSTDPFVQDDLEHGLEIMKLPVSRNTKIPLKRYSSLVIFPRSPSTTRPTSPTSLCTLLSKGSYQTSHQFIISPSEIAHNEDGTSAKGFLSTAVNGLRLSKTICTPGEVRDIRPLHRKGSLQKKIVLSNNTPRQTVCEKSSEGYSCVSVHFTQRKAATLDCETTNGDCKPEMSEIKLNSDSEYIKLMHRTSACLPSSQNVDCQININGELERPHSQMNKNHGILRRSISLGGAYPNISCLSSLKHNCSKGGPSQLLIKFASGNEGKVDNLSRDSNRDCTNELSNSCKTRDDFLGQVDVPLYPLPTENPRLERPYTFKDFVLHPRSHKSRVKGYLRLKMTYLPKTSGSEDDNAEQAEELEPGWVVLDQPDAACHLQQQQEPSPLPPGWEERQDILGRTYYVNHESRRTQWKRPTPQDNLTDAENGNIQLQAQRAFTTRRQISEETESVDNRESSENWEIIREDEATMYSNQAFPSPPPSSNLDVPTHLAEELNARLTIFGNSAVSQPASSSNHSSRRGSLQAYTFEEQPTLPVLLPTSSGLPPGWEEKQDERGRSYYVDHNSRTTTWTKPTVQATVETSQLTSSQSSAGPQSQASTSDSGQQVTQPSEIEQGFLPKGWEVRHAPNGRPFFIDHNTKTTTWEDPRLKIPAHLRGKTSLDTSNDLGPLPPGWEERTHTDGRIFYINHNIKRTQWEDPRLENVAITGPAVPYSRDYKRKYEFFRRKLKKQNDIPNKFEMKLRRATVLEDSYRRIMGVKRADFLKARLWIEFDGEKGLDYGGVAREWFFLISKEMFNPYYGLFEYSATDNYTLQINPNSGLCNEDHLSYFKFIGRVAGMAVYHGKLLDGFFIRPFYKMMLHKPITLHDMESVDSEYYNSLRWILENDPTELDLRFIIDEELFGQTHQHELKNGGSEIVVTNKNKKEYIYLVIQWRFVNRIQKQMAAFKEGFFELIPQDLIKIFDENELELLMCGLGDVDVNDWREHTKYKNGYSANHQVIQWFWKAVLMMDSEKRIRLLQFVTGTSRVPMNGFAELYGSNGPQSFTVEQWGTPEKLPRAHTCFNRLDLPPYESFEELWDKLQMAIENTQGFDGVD

With “3xHA-NEDD4 (from UniProt P46934 1-1319) (enzyme)” the binding [1] was “binds”.

B1: GFP-ARRDC3 (protein, UniProt Q96B67 1-414)
chain: MVLGKVKSLTISFDCLNDSNVPVYSSGDTVSGRVNLEVTGEIRVKSLKIHARGHAKVRWTESRNAGSNTAYTQNYTEEVEYFNHKDILIGHERDDDNSEEGFHTIHSGRHEYAFSFELPQTPLATSFEGRHGSVRYWVKAELHRPWLLPVKLKKEFTVFEHIDINTPSLLSPQAGTKEKTLCCWFCTSGPISLSAKIERKGYTPGESIQIFAEIENCSSRMVVPKAAIYQTQAFYAKGKMKEVKQLVANLRGESLSSGKTETWNGKLLKIPPVSPSILDCSIIRVEYSLMVYVDIPGAMDLFLNLPLVIGTIPLHPFGSRTSSVSSQCSMNMNWLSLSLPERPEAPPSYAEVVTEEQRRNNLAPVSACDDFERALQGPLFAYIQEFRFLPPPLYSEIDPNPDQSADDRPSCPSR
In the case of B1, the binding (3xHA-NEDD4) is reported as “binds”.

From publication PMC6315883
